# Screening data, single-dose tests

Mtb cholesterol medium: 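Phenotypic screen: M. tuberculosis growth, cholesterol and DPPC medium, 4 days; the read-out is not stated. Tested at 50 µM. Higher reads as more growth inhibition (inferred: compounds with an IC50 in retests scored well above the rest). Size under these conditions: about 69,000 compounds, about 370 of them at 50% or above in at least one test.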
Mtb glucose medium: 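Growth of Mycobacterium tuberculosis over 3 days (7H9 medium with glucose and tyloxapol); the read-out is not stated. Tested at 50 µM. Higher reads as more growth inhibition (inferred: compounds with an IC50 in retests scored well above the rest). About 69,000 compounds were tested under these conditions; 1.1% (about 760) showed 50% or more at least once.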

Results are given as percent effect.
The record does not define 0% and 100%; most values in the screen are far below 50% and negative numbers occur (in some assays of this library far below -100).
This is an unselected part of the compounds tested.
Two or more numbers in one place are separate tests of the same structure; such repeats can differ widely.

Compound: CN(C)C(=O)CNC(=O)c1ccc(Cl)cc1F
Mtb cholesterol medium: 10.6
Mtb glucose medium: -3.39 and -2.542

Compound: COc1c(C2CCCN2C(=O)c2c(C)noc2C(C)C)c(C)nn1C (stereo not drawn)
Mtb cholesterol medium: 17.43
Mtb glucose medium: -10.68

Compound: CC(=O)Nc1cccc(C(=O)Nc2cnc3n2CCCC3)c1
Mtb cholesterol medium: -7.393
Mtb glucose medium: -10.48 and -4.365

Compound: COc1cc(C)nc(N2CCN(C(=O)CCn3cc(C)cn3)CC2)n1
Mtb cholesterol medium: 12.17
Mtb glucose medium: 9.906

Compound: CC(C)Cc1noc(CN(C)C(=O)CCNC(=O)c2ccccc2F)n1
Mtb cholesterol medium: 15.48
Mtb glucose medium: -2.512 and 1.184

Compound: COc1ccc(CN2CC(O)CN(C(=O)OCC(C)C)CC2=O)cc1 (stereo not drawn)
Mtb cholesterol medium: -22.59
Mtb glucose medium: -0.713

Compound: O=C(O)C(F)(F)F.[H][C@]12CCN(c3cccc(C)n3)C[C@@]1([H])OCCN(C(=O)c1ccco1)C2
Mtb cholesterol medium: -10.87
Mtb glucose medium: 31.01

Compound: O=C(NCc1nc[nH]n1)c1cc(COc2cccc(C(F)(F)F)c2)[nH]n1
Mtb cholesterol medium: 0.816
Mtb glucose medium: -25.63 and 10.94

Compound: O=C(NCC(=O)N1CCN(c2ccccc2)CC1)c1sccc1C1CC1
Mtb cholesterol medium: 7.653
Mtb glucose medium: 40.79

Compound: O=C(NC1CCCN(c2ncccn2)C1)c1cn2ccccc2n1 (stereo not drawn)
Mtb cholesterol medium: -9.283
Mtb glucose medium: -2.826

Compound: Cn1ccnc1-c1ccc(NCC2COc3ccccc3O2)nn1 (stereo not drawn)
Mtb cholesterol medium: 19.79
Mtb glucose medium: 54.07

Compound: CCOc1ccc(S(=O)(=O)NC(=O)c2c(C)noc2C(C)C)cc1
Mtb cholesterol medium: -5.204
Mtb glucose medium: -8.042

Compound: CCc1c(C)nn2c(O)cc(C3CCN(C(=O)c4cnn(C)c4)C3)nc12 (stereo not drawn)
Mtb cholesterol medium: -19.92 and -12.46
Mtb glucose medium: -6.228

Compound: CCc1cnc(NC2CCc3c(ccc(=O)n3C)C2)nc1 (stereo not drawn)
Mtb cholesterol medium: -26.75
Mtb glucose medium: -38.16

Compound: c1ccc(Cc2noc(CNC3CCc4ncnn4C3)n2)cc1 (stereo not drawn)
Mtb cholesterol medium: -7.471
Mtb glucose medium: -5.353

Compound: COc1ccccc1CNC(=O)CN(C)C(C)c1ccncn1 (stereo not drawn)
Mtb cholesterol medium: 19.99
Mtb glucose medium: -7.535

Compound: [H][C@@]12CCCN1CCCN(c1nc(C(C)(C)C)nc3c1cnn3C)C2
Mtb cholesterol medium: 49.42
Mtb glucose medium: 56.93

Compound: COCC1CN(C(=O)c2cnc(C)cn2)Cc2ncnn2C1 (stereo not drawn)
Mtb cholesterol medium: -4.316
Mtb glucose medium: -2.815 and 3.291

Compound: N#Cc1cccc(CS(=O)(=O)NC(Cc2ccccc2)C(N)=O)c1 (stereo not drawn)
Mtb cholesterol medium: 8.449
Mtb glucose medium: 0.2384 and -10.59

Compound: Cc1nc(N2CCCC2)ncc1-c1cc(O)nc(N2CCCC2)n1
Mtb cholesterol medium: -3.616
Mtb glucose medium: -8.905

Compound: NCCO[C@H]1C[C@@H](O)C12CCN(C(=O)CCOc1ccccc1)CC2
Mtb cholesterol medium: 7.92
Mtb glucose medium: 22.46

Compound: [H][C@@]12CCN(C(=O)Cc3ccccn3)C[C@]1([H])[C@H](c1nnc(C)o1)CCO2
Mtb cholesterol medium: -6.801
Mtb glucose medium: 12.93

Compound: O=C(CCc1cscn1)N1CCCC1c1noc(C2CC2)n1 (stereo not drawn)
Mtb cholesterol medium: 7.497
Mtb glucose medium: -0.03469

Compound: Cc1ccccc1C(C)NC(=O)CN1CCN(Cc2cccs2)CC1 (stereo not drawn)
Mtb cholesterol medium: 4.322
Mtb glucose medium: -6.681

Compound: CCOC1CC2(CCN(Cc3cnn(C)c3)CC2)c2ccc(C)cc21 (stereo not drawn)
Mtb cholesterol medium: 8.022
Mtb glucose medium: -4.373 and -8.752

Compound: CCC[C@H]1CN(CCS(C)(=O)=O)C[C@@H]1NC(=O)c1cc[nH]n1
Mtb cholesterol medium: -2.15
Mtb glucose medium: 5.842

Compound: C[C@]1(O)CCN(Cc2ncccc2F)C[C@@H]1Oc1cccc(F)c1
Mtb cholesterol medium: 4.916
Mtb glucose medium: 0.6449

Compound: Cc1nnsc1CN(C)Cc1ccc(C(=O)Nc2sccc2C#N)cc1
Mtb cholesterol medium: -9.123 and -5.489
Mtb glucose medium: -40.86

Compound: Cc1nc[nH]c1-c1nccn1CCN(C)S(C)(=O)=O
Mtb cholesterol medium: 8.206
Mtb glucose medium: 6.664

Compound: CCC(C)NC(=O)CS(=O)(=O)Cc1cc(C)ccc1C (stereo not drawn)
Mtb cholesterol medium: -28.3
Mtb glucose medium: -25.18

Compound: O=C(C1CCOCC1)N1CCc2ncc(CN3CCOCC3)n2CC1.O=C(O)C(F)(F)F
Mtb cholesterol medium: 7.61 and -4.92
Mtb glucose medium: -7.767

Compound: Cc1ccc(CN(CC(=O)NCC2CCOC2)c2ccc(F)cc2)o1 (stereo not drawn)
Mtb cholesterol medium: 2.798
Mtb glucose medium: 4.188

Compound: CCc1cnc(CN(C)C2CCN(CC(=O)Nc3nccs3)C2)o1 (stereo not drawn)
Mtb cholesterol medium: -8.062
Mtb glucose medium: -39.45

Compound: CCNC(=O)c1ccc2c(c1)nc1n2CCN(C(C)C)C1
Mtb cholesterol medium: -4.411
Mtb glucose medium: -1.165

Compound: COCC(=O)N1CCCC1c1nc(C)c2c(n1)N(CC(C)C)C(=O)CC2 (stereo not drawn)
Mtb cholesterol medium: 18.48
Mtb glucose medium: 8.061

Compound: O=C(O)C(F)(F)F.[H][C@@]12CCN(c3ccc(C)nn3)[C@]1([H])CC[C@H](C(=O)NCc1ccco1)O2
Mtb cholesterol medium: -30.66
Mtb glucose medium: -22.9

Compound: CC1CN(C(=O)c2ccnc(-n3cncn3)c2)c2ccccc2S1 (stereo not drawn)
Mtb cholesterol medium: 4.847
Mtb glucose medium: 5.346 and 10.26

Compound: CCn1cc(S(=O)(=O)Nc2ccc3[nH]c(C4CCC4)nc3c2)cn1
Mtb cholesterol medium: -37.74
Mtb glucose medium: -8.593 and -46.46

Compound: CCN(CC)C(=O)c1ccc(Cl)c(NC(=O)c2cnc(C)cn2)c1
Mtb cholesterol medium: 17.33
Mtb glucose medium: 13.05 and 0.3598

Compound: O=C(Cc1cccs1)N1CCOCC1CO (stereo not drawn)
Mtb cholesterol medium: -4.972
Mtb glucose medium: -0.01853 and 0.2881

Compound: Cc1nc2nc(C)c3c(=O)n(-c4ccn[nH]4)ccc3n2n1
Mtb cholesterol medium: 17.18
Mtb glucose medium: 5.186

Compound: O=C(Cc1ccc2c(c1)OCC2)Nc1nn[nH]n1
Mtb cholesterol medium: 19.93
Mtb glucose medium: 24.03

Compound: CCN(C)S(=O)(=O)c1c(F)cc(NC(C)=O)cc1F
Mtb cholesterol medium: 0.8797
Mtb glucose medium: -22.04

Repeated from the top, 5 entries:

Compound,Mtb cholesterol medium,Mtb glucose medium
CN(C)C(=O)CNC(=O)c1ccc(Cl)cc1F,10.6,-3.39 and -2.542
COc1c(C2CCCN2C(=O)c2c(C)noc2C(C)C)c(C)nn1C (stereo not drawn),17.43,-10.68
CC(=O)Nc1cccc(C(=O)Nc2cnc3n2CCCC3)c1,-7.393,-10.48 and -4.365
COc1cc(C)nc(N2CCN(C(=O)CCn3cc(C)cn3)CC2)n1,12.17,9.906
CC(C)Cc1noc(CN(C)C(=O)CCNC(=O)c2ccccc2F)n1,15.48,-2.512 and 1.184

Data taken from ChEMBL document CHEMBL3988442, “University of Dundee, Small-Polar-MMV Screening Library” (2021).